Measured values taken from article PMC6024601.
Results are given in words; binding and its absence hold for the method and conditions named. Binding seen in cells or lysates may run through a third protein. Some results given as binding are weak or reduced against the parent protein; the word gives no strength.

Sequences of proteins named here, by UniProt entry; tags and fusion partners are left off.
UniProt Q6AZ64: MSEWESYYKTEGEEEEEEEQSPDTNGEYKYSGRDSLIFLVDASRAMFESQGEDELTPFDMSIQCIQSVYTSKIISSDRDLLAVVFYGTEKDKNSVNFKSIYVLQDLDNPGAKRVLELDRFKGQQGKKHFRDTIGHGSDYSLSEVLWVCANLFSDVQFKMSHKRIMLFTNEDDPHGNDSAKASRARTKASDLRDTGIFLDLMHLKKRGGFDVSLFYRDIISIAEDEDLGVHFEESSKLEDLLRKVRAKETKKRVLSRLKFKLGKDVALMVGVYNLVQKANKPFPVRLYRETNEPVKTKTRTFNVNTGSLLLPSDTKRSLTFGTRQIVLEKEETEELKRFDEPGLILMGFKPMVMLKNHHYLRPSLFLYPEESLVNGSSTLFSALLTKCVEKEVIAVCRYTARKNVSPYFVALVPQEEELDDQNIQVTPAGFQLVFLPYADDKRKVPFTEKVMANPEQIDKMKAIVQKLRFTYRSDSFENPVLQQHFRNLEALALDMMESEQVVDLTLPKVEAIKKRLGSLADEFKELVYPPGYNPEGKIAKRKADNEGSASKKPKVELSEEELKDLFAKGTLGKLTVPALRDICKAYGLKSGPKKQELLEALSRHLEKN
UniProt Q63690: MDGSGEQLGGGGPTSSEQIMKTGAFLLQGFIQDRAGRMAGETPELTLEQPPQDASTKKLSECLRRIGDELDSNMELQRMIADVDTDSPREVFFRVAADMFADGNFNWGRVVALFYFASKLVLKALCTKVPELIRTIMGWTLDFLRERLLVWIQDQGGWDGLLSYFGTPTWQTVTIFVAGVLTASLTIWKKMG

Legend:
[1] = molecular target: Ku70 (rat (endogenous in Sertoli–germ cells and testes of SD rats)) (UniProt Q6AZ64); test: co-IP; endogenous proteins in lysate of co-cultured rat Sertoli–germ cells; cells untreated or exposed to MC-LR (36 μg/mL) with or without RES (20 μM) pretreatment; western blot
[2] = molecular target: Bax (rat (endogenous in Sertoli–germ cells and testes of SD rats)) (UniProt Q63690); test: co-IP; endogenous proteins in rat testis homogenate in RIPA buffer; 500 μg protein with 5 μg antibody (Ku70 or Bax), Protein A agarose; IP and reverse IP; rats untreated or treated with MC-LR (40 μg/kg, 14 days) with or without RES pretreatment; western blot

binding [1]	binding [2]	Substance
binds	–	Bax (from UniProt Q63690 1-192)
–	binds	Ku70 (from UniProt Q6AZ64 1-608)
